The results in this text go back to PubChem BioAssay AID2685 (National Center for Advancing Translational Sciences (NCATS), 2010).

This assay is described as follows: qHTS Assay for Lipid Storage Modulators in Drosophila S3 Cells.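 As to cell number change: cells counted by Cell Tracker Red CMTPX staining in the red channel.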 As to conditions: BODIPY lipid droplet fluorescence, 18-24 h; for cell number change: measured here: cell count max response, cells fed with added oleic acid. In outline:
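Laser-scanning cytometry quantifies lipid droplet accumulation (500–530 nm total intensity; droplet/cell object ratio) in oleic acid-fed (400 uM added) Drosophila S3 cells treated with a concentration series. 20 uM Triacsin C defined 100% inhibition.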

Setting [1] is: measured here: cell number channel AC50, cells fed with added oleic acid.
The mark [2] stands for this setting: measured here: lipid fluorescence (Fed channel) AC50, cells fed with added oleic acid.

The list shows a part of the results. The main result of the screen is listed elsewhere. These columns were measured beside it and carry no call. The list favours compounds with an active or inconclusive main result. The note in brackets gives the kind of curve behind each potency; many fits are weak.

As to `O=C1/C(=C\c2cccs2)N=C(c2cccs2)N1Nc1ccccc1`, the cell number change was 50.3%. Further, the AC50 (as a rule, the midpoint of the concentration-response curve, whichever way the signal moves) under setting [1] was 1.46 µM [rising, full curve].
As for `O=C(N/N=C/c1ccc(OC(=O)c2ccccc2Cl)cc1)c1cc(O)cc(O)c1`, the cell number change is -20.8%. Moreover, the half-maximal activity concentration (AC50) under setting [2] is 29.1 µM [falling, single point].
On to `Cc1nc2ccccc2nc1Nc1cccc(Cl)c1`, for which the cell number change came out at 28.8%. Moreover, the AC50 under setting [2] was 6.51 µM [rising, single point].
As to `COc1ccc(CN2C=C3C(=O)C(C)(OC(=O)CCc4ccccc4)C(=O)C=C3C=C2c2ccc(C#N)cc2)cc1` (stereo unspecified), the cell number change was 16.5%. For the same compound, the concentration at half-maximal activity (AC50) under setting [2] was 7.31 µM [rising, partial curve, poor fit].
Regarding `Cn1cc(S(=O)(=O)NCc2ccc(F)cc2)c(=O)n(C)c1=O`, the cell number change was determined as 5.16%. For the same compound, under setting [2], the AC50 was 0.103 µM [rising, full curve, poor fit].
With `CC(=O)c1ccc(N2CCN(C(=S)Nc3cccc(Cl)c3)CC2)cc1`, the cell number change was -3.6%. Also, under setting [2], the AC50 is 1.84 µM [rising, full curve].
With `COc1ccccc1N1C(=O)C2C3C=CC(C3)C2(C)C1=O` (stereo unspecified), the cell number change was -31.4%. The AC50 under setting [1] is 7.31 µM [falling, partial curve, poor fit]. Besides, the AC50 under setting [2] is 25.9 µM [falling, single point].
On to `CC(=O)c1ccc(NS(=O)(=O)c2ccc(CC(C)C)cc2)cc1`, for which the cell number change is -49.2%. In addition, the AC50 under setting [1] is 18.4 µM [falling, single point]. Also, under setting [2], the AC50 was 18.4 µM [falling, single point].
In the case of `Cc1nnc(SCC(=O)Nc2sccc2C(N)=O)n1Cc1ccccc1`, the cell number change is -1.82%. The AC50 under setting [2] is 5.8 µM [rising, full curve].
With `COc1cc(C2C(C(=O)c3ccco3)=C(O)C(=O)N2c2cc(C)on2)cc(Br)c1O` (stereo unspecified), the cell number change is -10%.
Consider `Cn1cc(Br)c(C(=O)NNC(=O)c2ccccc2)n1`, for which the cell number change was -51%. Further, the AC50 under setting [1] is 16.4 µM [falling, partial curve, poor fit]. Moreover, the AC50 under setting [2] was 18.4 µM [falling, single point].
As for `CCn1c(N)c(C(=O)NCc2ccc3c(c2)OCO3)sc1=S`, the cell number change is 6.79%. Further, the concentration at half-maximal activity (AC50) under setting [2] was 2.59 µM [rising, partial curve].
On to `O=C(COC(=O)c1cncc(Br)c1)NC1CCCC1`, for which the cell number change is -13.2%.
The same measure, in the same setting: under `Cc1ccc(C(=O)O/N=C(\c2ccccc2)c2ccncc2)cc1` stands 16.8%.
Turning to `Cc1cc(C)cc(Oc2ccc(N)cc2)c1`, the cell number change was -31%. Also, under setting [1], the AC50 was 29.1 µM [falling, single point]. Moreover, under setting [2], the AC50 was 1.64 µM [rising, full curve, poor fit].
As to `C=CCNc1nc(-c2ccc(OC)cc2OC)cs1`, the cell number change is -4.21%. The AC50 under setting [2] was 0.00461 µM [rising, full curve, poor fit].
Consider `Cc1cc(/C=C2/C(=O)NN(c3ccccc3)C2=O)c(C)n1-c1ccc(O)cc1`, for which the cell number change is -4.24%. Further, the AC50 under setting [2] was 29.1 µM [rising, single point].
As for `COC(=O)c1ccccc1NC(=O)N1CCc2ccc(NC(=O)c3ccccn3)cc2C1`, the cell number change is 20.5%.
Consider `CC1CCN(C(=O)CSc2nc3ccccc3s2)CC1`, for which the cell number change worked out at 81.8%. Under setting [1], the half-maximal activity concentration (AC50) was 18.4 µM [rising, partial curve]. Besides, the AC50 under setting [2] is 29.1 µM [rising, single point].
In the case of `Cc1ccc(S(=O)(=O)N2CCN(Cc3nnc(-c4c(-c5ccccc5)noc4C)o3)CC2)cc1`, the cell number change was -34.1%. Further, the AC50 under setting [1] is 0.651 µM [falling, partial curve, poor fit]. For the same compound, the AC50 under setting [2] is 2.31 µM [falling, partial curve, poor fit].
Regarding `COc1ccccc1CNS(=O)(=O)c1cc(-c2cc(C)no2)ccc1C(C)C`, the cell number change was -5.32%. The AC50 under setting [2] was 29.1 µM [falling, single point].
For `O=C(N/N=C/c1ccc2c(c1)OCO2)c1ccn(Cc2ccc(Cl)cc2)n1`, the cell number change amounted to 49%. The AC50 under setting [1] is 4.11 µM [rising, full curve]. In addition, the AC50 under setting [2] was 29.1 µM [rising, single point].
For the compound `O=C1CC(c2ccc(Cl)cc2)n2nc(NS(=O)(=O)c3ccc(F)cc3)nc2N1` (stereo unspecified), the cell number change was 8.6%. Besides, the AC50 under setting [2] is 18.4 µM [rising, single point].
As to `CCC1(c2ccc(F)cc2)NC(=O)N(CC(=O)NCC(=O)Nc2cccc(C)c2C)C1=O` (stereo unspecified), the cell number change was 57%. Moreover, the AC50 under setting [1] was 2.59 µM [rising, full curve].
Take `O=C(Cc1ccccc1)N1CCCC(c2nc(-c3cccs3)no2)C1` (stereo unspecified): the cell number change is -1.5%. Besides, under setting [2], the AC50 is 0.651 µM [falling, single point].
On to `CCn1c(=O)c2c(nc(SCC(=O)N3CCCC(C)C3)n2C)n(C)c1=O` (stereo unspecified), for which the cell number change came to 1.3%. Also, the AC50 under setting [2] was 6.51 µM [falling, single point].
Take `CN1/C(=C\C(=O)CN2C(=O)NC3(CCCCCC3)C2=O)C(C)(C)c2ccccc21`: the cell number change was -28.1%. In addition, under setting [2], the AC50 was 18.4 µM [falling, single point].
For `Cc1ccc2c(C)c(C(=O)N(Cc3ccncc3)CC3CCCO3)oc2c1C` (stereo unspecified), the cell number change is 29.2%.
On to `CON/C=C(\C=Nc1ccc(Cl)cc1Cl)c1ncc(C(F)(F)F)cc1Cl`, for which the cell number change is -70%. Under setting [1], the AC50 was 16.4 µM [falling, single point]. The AC50 under setting [2] is 0.58 µM [rising, single point].
Take `Cc1cccc(NC(=O)CN2C(=O)NC(C)(c3ccc4ccccc4c3)C2=O)n1` (stereo unspecified): the cell number change was -6.43%. Further, the AC50 under setting [1] is 6.51 µM [falling, single point]. For the same compound, the AC50 under setting [2] was 6.51 µM [falling, single point].
As for `Cc1ccccc1NC(=O)/C(C#N)=C/c1ccc(-c2ccc(Cl)c(C(=O)O)c2)o1`, the cell number change turned out to be 20%.
For `O=C(NCc1ccccc1)Nc1cccn(Cc2ccccc2F)c1=O`, the cell number change stood at 18.1%. Further, the AC50 under setting [1] was 2.91 µM [falling, single point]. The AC50 under setting [2] is 0.00461 µM [rising, full curve, poor fit].
`COc1ccccc1C(=O)N=C1NC(=O)CC2C(=O)NCCN12` (stereo unspecified): the cell number change is -37%. Further, the AC50 under setting [1] is 23.1 µM [falling, single point]. Further, under setting [2], the AC50 is 29.1 µM [falling, single point].
As for `CSc1ccccc1NC(=O)CN1CCCCC1C` (stereo unspecified), the cell number change is -21%. Also, the AC50 under setting [1] is 3.26 µM [falling, full curve, poor fit].
In the case of `Clc1ccc(OCCN2CCCCC2)c(Cl)c1`, the cell number change is -89.8%. Besides, the AC50 under setting [1] was 32.6 µM [falling, partial curve]. The concentration at half-maximal activity (AC50) under setting [2] was 25.9 µM [falling, partial curve].
Turning to `C=CCOC(=O)/C(=C/c1cccc2ccccc12)NC(=O)c1ccccc1`, the cell number change is 5.67%. Also, the AC50 under setting [2] is 0.116 µM [falling, full curve, poor fit].
In the case of `CCN(Cc1ccncc1)C(=O)c1cc(COc2ccc(OC)cc2Cl)on1`, the cell number change stood at 28.5%. Further, the AC50 under setting [2] is 6.51 µM [rising, partial curve, poor fit].
Turning to `O=C(Nc1ccc2c(c1)CCC2)c1cc(S(=O)(=O)N2CCN(c3ccccc3)CC2)ccc1Cl`, the AC50 under setting [2] is 6.51 µM [falling, single point].
As for `COc1cccc(C=O)c1OC(=O)N1CCOCC1`, the cell number change came to 18.9%. For the same compound, the AC50 under setting [2] was 23.1 µM [rising, partial curve, poor fit].
Turning to `COc1ccc(NC(=O)Cn2nnc(C(=O)NCc3ccccc3)c2N)cc1Cl`, the cell number change was -12.9%. In addition, under setting [2], the half-maximal activity concentration (AC50) was 0.0731 µM [falling, partial curve].
On to `O=C(O)c1c(C(=O)N2N=C3/C(=C/c4ccccc4)CCCC3C2c2ccccc2)cccc1[N+](=O)[O-]` (stereo unspecified), for which the cell number change came out at 44.4%. For the same compound, the concentration at half-maximal activity (AC50) under setting [1] was 4.61 µM [rising, full curve, poor fit].
With `COCCNC(=O)/C(C#N)=C/c1ccc(C(=O)O)cc1`, the cell number change stood at 65.6%.
As to `CCOC(=O)c1c(C)n(CCO)c2ccc(O)cc12`, the cell number change is 37.5%. The AC50 under setting [1] is 29.1 µM [rising, single point]. In addition, the AC50 under setting [2] was 14.6 µM [rising, partial curve].
With `CCCCN(C(=O)c1cc2c(s1)CCCCC2)c1c(N)n(CCC)c(=O)[nH]c1=O`, the cell number change was determined as 3.76%.
Consider `CCOc1ccc(C(C(=O)NC2CCCCC2)N(C(=O)c2ccccn2)c2cccnc2)cc1` (stereo unspecified), for which the cell number change was -6.38%. The AC50 under setting [2] was 3.66 µM [falling, partial curve, poor fit].
On to `CC(=O)c1ccc(NC(=O)CCc2ccc(C)o2)cc1`, for which the cell number change was -11.5%. Further, the half-maximal activity concentration (AC50) under setting [2] was 3.26 µM [falling, single point].
Take `O=C(/C=C/c1cccc(Cl)c1)Nn1c(-c2cccs2)nc2ccccc2c1=O`: the cell number change was determined as 4.1%. Also, the AC50 under setting [2] was 0.731 µM [rising, full curve, poor fit].
Turning to `CN(C)c1ccc(/C=C/C#N)cc1`, the cell number change was found to be 62.4%. Moreover, the AC50 under setting [1] is 6.51 µM [rising, partial curve].
Consider `Cc1ccccc1NC(=O)NCCc1nc2ccccc2[nH]1`, for which the AC50 under setting [1] was 0.13 µM [rising, full curve, poor fit] and the AC50 under setting [2] was 0.146 µM [rising, full curve, poor fit].
Turning to `COc1ccccc1-c1nn(-c2ccccc2)cc1C(=O)N1CCc2ccccc2C1`, the AC50 under setting [2] was 2.31 µM [falling, partial curve, poor fit].
Regarding `CCOC(=O)c1c(NC(=O)COc2cccc3c2CCN(C)C3=O)sc2c1CCC2`, the cell number change was -53%. Moreover, under setting [1], the half-maximal activity concentration (AC50) is 29.1 µM [falling, single point]. Besides, the AC50 under setting [2] was 5.8 µM [falling, partial curve, poor fit].
As to `COc1ccc(-c2nnn(CC(=O)N(CC(=O)NC3CCCC3)c3ccccc3F)n2)cc1OC`, the cell number change was 11.8%.
On to `CN(C)/N=C/C=C1\CC/C(=C\c2ccc(Br)cc2)C1=O`, for which the cell number change is 73.4%. Besides, under setting [1], the AC50 was 18.4 µM [rising, partial curve]. For the same compound, the AC50 under setting [2] is 16.4 µM [rising, partial curve].
With `CCOc1ccc(-c2nnc(SCC(=O)NC3CC3)o2)cc1`, the cell number change is -5.57%.
Consider `CCCn1c(CN2CCN(C(=O)OCC)CC2)nc2cc(NC(C)=O)ccc21`, for which the cell number change was -10.5%. Moreover, the AC50 under setting [2] is 0.0058 µM [falling, full curve, poor fit].
Consider `COc1ccc(-n2c(O)c(/C=N/NS(=O)(=O)c3ccc(C)cc3)c3ccccc3c2=O)cc1OC`, for which the AC50 under setting [2] is 14.6 µM [falling, partial curve].
As for `CSc1ncccc1C(=O)NCc1ccccc1Cl`, the cell number change is -11.1%.
Same read-out and setting: in the case of `CCc1ccccc1NC(=O)NCc1cccnc1` it was -3.64%.
